Reference: patent US20150266963A1
No constants are given. Whether binding was seen depends on the method and setting. Some entries that bind do so weakly or less than the wild type. Tags and fused reporters may be left off the sequences shown.

T1: recombinant human CD70 (Flag-TNC-CD70) (human) (UniProt P32970)
T1 sequence (looked up): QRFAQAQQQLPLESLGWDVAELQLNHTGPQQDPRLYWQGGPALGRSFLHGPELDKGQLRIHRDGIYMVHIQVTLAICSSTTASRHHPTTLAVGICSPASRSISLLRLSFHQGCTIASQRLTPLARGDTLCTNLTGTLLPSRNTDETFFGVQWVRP

B1: 9D1 Fab (Fab, V domains shown)
VH: EVQLVESGGGLVQPGGSLRLSCAASGFTFSVYYMNWVRQAPGKGLEWVSDINNEGGTTYYADSVKGRFTISRDNAKNTLTLQMNSLKPEDTALYYCVRDAGYSNHVPIFDSWGQGTQVIVAS
VL: QAVVTQEPSLSVSPGGTVTLTCGLSSGSVTSSHYPGWYQQTPGQAPRLLIFNTNSRHSGVPSRFSGSISGNKAALTITGAQPEDEADYYCALLNIDDGSTMFGGGTHLTVLG
B2: 24F2 Fab (Fab, V domains shown)
VH: EVQLVESGGGLVQPGGSLRLSCAASGFTFSVYYMNWVRQAPGKGLEWVSDINNEGGTTYYADSVKGRFTISRDNAKNTLTLQMNSLKPEDTALYYCVRDAGYSNHVPIFDSWGQGTQVIVAS
VL: QSALTQPSAVSVSLGQTARITCRGDTLRNYHANWYRQKPGQAPVLVIYGDDIRPSGIPERFSGSRLGGTATLTVSGAQAEDEADYYCQSSDSSGYRVVFGGGTKLTVLG
B3: 33D8 Fab (Fab, V domains shown)
VH: EVQLVESGGGLVQPGGSLRLSCAASGFTFSVYYMNWVRQAPGKGLEWVSDINNEGGTTYYADSVKGRFTISRDNAKNTLTLQMNSLKPEDTALYYCVRDAGYSNHVPIFDSWGQGTQVIVAS
VL: QSALTQPSTVSVSLGQTARITCRGDSLERYGTNWYQQKPGQAPVLVIYDDDSRPSGIPERFSGSSSGATAALTISGAQAEDEGDYYCQSADSSGNAVFGGGTHLTVLG
B4: 24E3 Fab (Fab, V domains shown)
VH: EVQLVESGGGLVQPGGSLRLSCAASGFTFSVYYMNWVRQAPGKGLEWVSDINNEGGTTYYADSVKGRFTISRDNAKNTLTLQMNSLKPEDTALYYCVRDAGYSNHVPIFDSWGQGTQVIVAS
VL: QAVVTQEPSLSVSPGGTVTLTCGLTSGSVTSDNFPVWYQQTPGQAPRLLIYTINSRHSGVPSRFSGSITGNKAILTITGAQPEDEADYYCALYLENFANEFGGGTRLTVLG
B5: 4D2 Fab (Fab, V domains shown)
VH: QVQLQESGPGLVKPSQTLSLACTVSGGSITTSYYYWSWIRQPPGKGLEWMGAIGSRGSTYYSPSLKTRTSISRDTSKNQFTLQLSSVTPEDTAVYYCARVTGEITYNSGSYYYTLNLFDYWGQGTQVTVSS
VL: QSVLTQPPSLSASPGSSVRLTCTLSSGNSVGNYDISWYQQKAGSPPRYLLYYYSDSYKNQGSGVPSRFSGSKDPSANAGLLLISGLQAEDEADYYCSVSNSGTYKPVFGGGSKLTVLG
B6: 5B2 (Fab, V domains shown)
VH: QVQLVESGGDLVQPGGSLRLSCAASGFTVSNPAMSWVRQAPGKGLEWVSEITNYGYNRYYADSVKGRFTISTDNAKNTLYLQMNSLRSEDSAVYYCTASLGLEYGYGDWGQGTQVTVSS
VL: QSALTQPPSVSGTLGKTLTISCAGTSSDVGYGNYVSWYQQLPGTAPKLLIYRVSTRASGMPDRFSGSKSGNTASLTISGLQSEDEADYYCASYTTNNKPVFGGGTHLTVLG
B7: 9B2 Fab (Fab, V domains shown)
VH: QLQVVESGGGLMQPGGSLRLSCAASGFTFSGSAMSWVRQAPGKGLEWVSSIYSHSMYTYYADSVKSRFTISTDNAKNTLYLQMNSLKPDDTAVYYCAASSDYEGLFVSWGQGTQVTVSS
VL: QAVLTQPPSLSASPGSSVRLTCTLNSANSVGSYDISWYQQKAGSPPRYLLYYYSDSLSHQGSGVPSRFSGSTDASANAGLLLISGLQPEDEADYYCSAYNRGSHVFGGGTKLTVLG
B8: 9E1 Fab (Fab, V domains shown)
VH: EVQLQESGGGVVQPGGSLRLSCAASGFTFDDYAMSWVRQAPGKGLEWVSSIYMYDSSTYYADSVKGRFTISTDNAKNTVYLQMNSLKSEDTAVYYCAKDINRSYGSSWSHFGPIFSSWGQGTQVTVSS
VL: QAVVTQEPSLSVSPGGTVTLTCGLTSGSVTSSNYPDWYQQTPGQAPRLLIYNTNSRHSGVPSRFSGSISGNKAALTITGAQPEDEADYYCNLYMGSGGSKVFGGGTKLTVLG

molecular target: T1, recombinant human CD70 (Flag-TNC-CD70) (human); assay: inhibition ELISA: Flag-TNC-CD70 captured by anti-Flag mAb, Fab titrated, remaining binding of CD27-Fc detected

binding, binds:
B1
B2
B3
B4
B5
B6
B7
B8
